Measured values from article PMC7291019.
Results are given in words; binding and its absence hold for the method and conditions named. Binding seen in cells or lysates may run through a third protein. Some results given as binding are weak or reduced against the parent protein; the word gives no strength.

The chains behind the UniProt entries cited, without tags or fusion partners.
UniProt P26678: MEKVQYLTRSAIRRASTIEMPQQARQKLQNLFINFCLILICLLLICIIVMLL

Molecular target: RFP-SERCA2a (acceptor-labelled human cardiac sarco/endoplasmic reticulum calcium ATPase, as it stands in the RFP-SERCA2a-LINKER-GFP-PLB fusion biosensor) (human) (UniProt P16615)
Test: FRET or BRET; fluorescence-lifetime (FLT) detected FRET in living HEK293-6E cells in PBS at room temperature, 1536-well plate reader; GFP donor on PLB, RFP acceptor on SERCA2a, both tethered on one chain by a 47-residue linker; donor-only cell line as reference; with DMSO, thapsigargin or Ro …

binding: binds
Substance: GFP-PLB (donor-labelled human cardiac phospholamban, as it stands in the RFP-SERCA2a-LINKER-GFP-PLB fusion biosensor) (from UniProt P26678 1-52)
